Data published in PubChem BioAssay AID504545 (Broad Institute, 2011).
Inconclusive means that the source gave no clear call. Such entries were picked first, then a sample of the others. The source made the active and inactive calls. The rule behind the calls is not given here.

biological target: Cyclin-dependent kinase 5 activator 1 (Homo sapiens) + Cyclin-dependent kinase 5 (Homo sapiens) (UniProt Q15078+Q00535); assay: CDK5/p35 kinase inhibitors, dose response, biochemical, cherry-picked samples, set 2 (AID 504545); details: biochemical plate reader; at 30 µM (top of the series)

Activity change, negative = inhibition, inconclusive:
Cc1ncc(CO)c(/C=N/Nc2ccc(C(F)(F)F)cn2)c1O -0.134%
C=CCNc1nc(N)c(C(=O)c2ccc3c(c2)OCO3)s1 -15.8%
COc1cc(/C=N/Nc2ccc(C(F)(F)F)cn2)cc(OC)c1O -6.79%
Cc1nn(-c2nc3ccccc3[nH]2)c(=O)c2ccccc12 -7.6%
FC(F)(F)c1ccc(N/N=C/c2cccnc2)nc1 0.937%
Oc1ccc(/C=N/Nc2nccnc2Cl)c(O)c1 -16.1%
CCOc1ccc(-c2ccc(SC)nn2)cc1 -15.5%
NC(=O)N/N=C/c1c(O)ccc2oc3c(c12)CCCC3 -47.2%
COc1ccc(Nc2nc(N)c(C(=O)c3ccc(OC)cc3)s2)cc1 -21.5%
O=C(O)c1ccc(/C=N\Nc2ccccn2)cc1 -17%
Cc1cccc(C(=O)O/N=C(\N)c2ccccn2)c1 -21.7%
CCc1ncc(/C=C2\C(=O)Nc3ccccc32)[nH]1 -12.7%
NC1=NC(=O)/C(=C/c2ccc(-c3ccc(S(N)(=O)=O)cc3)o2)S1 -62.9%
COc1ccc(Nc2nc(N)c([N+](=O)[O-])c(N3CCCC3)n2)cc1 -22%
Oc1[nH]c2ccccc2c1C1=NCCCCC1 -11%
CC(C)C[C@H](CO)Nc1nc(Nc2cccc(Cl)c2)c2ncn(C(C)C)c2n1 -10.2%
Nc1nc(Nc2cccc(F)c2)nc(NCCO)c1[N+](=O)[O-] -11.1%
COc1ccccc1C(=O)Nc1nc2ccccc2[nH]1 -17.8%
O=C(Nc1csc(Cc2c(Cl)cccc2Cl)n1)NN1CCOCC1 -14.8%
CCC(C)Oc1cc(-c2ccnc(Nc3cccc(Cl)c3)n2)ccn1 (configuration not stated) 5.62%
COc1ccc(Nc2nccc(-c3ccc(C#N)cc3)n2)cc1 -6.55%
COc1cc(/C=N/Nc2ccc(C(F)(F)F)cn2)ccc1O -26.7%
Cc1cc(C)c2nc(C(F)(F)F)c(C#N)c(N)c2c1 -11.9%

Activity change, negative = inhibition, inactive:
O=[N+]([O-])c1ccc2c(c1)/C(=N\O)c1ccccc1-2 -11.8%
COc1ccc2nc(C(F)(F)C(F)(F)F)c(C#N)c(N)c2c1 2.9%
COc1ccc2nc(C)cc(Nc3ccc(C)cc3)c2c1 7.73%
COc1ccc2ccc3ccc(OC)c(OC(C)=O)c3c2c1 -3.35%
CC(C)n1cnc2c(NCc3ccc(S(N)(=O)=O)cc3)nc(NCc3ccc(S(N)(=O)=O)cc3)nc21 -18.7%
Clc1ccc(N/N=C/c2ccncc2)cc1Cl -9.21%
Oc1ccc(C=NNc2ccccn2)c(O)c1 -16.7%
O=C(NNC(=O)c1cccs1)c1ccccc1 -8.86%
Clc1cnc(N/N=C/c2ccncc2)c(Cl)c1 -12.7%

Random excerpt: two records from the list
Activity change, negative = inhibition, inactive:
Clc1ccc(N/N=C/c2ccncc2)cc1Cl -9.21%
Oc1ccc(C=NNc2ccccn2)c(O)c1 -16.7%
